Measurements taken from US6468971B1, “Maintaining kidney function during surgery or trauma” (Board of Supervisors of Louisiana State University and …, priority 1998, dated 2002).

System: isoflurane-anesthetized rats under surgery
Assay: Renal response to drug given after start of surgery and isoflurane anesthesia
Format: in vivo, Sprague-Dawley rat
[1] = continuous intravenous infusion after start of surgery and isoflurane
[2] = intravenous bolus injection during isoflurane anesthesia and surgery

NS(=O)(=O)c1cc(C(=O)O)c(NCc2ccco2)cc1Cl [furosemide]
time urine flow rate, sodium and potassium excretion remained at high levels (continuous intravenous infusion): about 110 minutes
urinary potassium excretion [1]: large increases
urinary sodium excretion [1]: large increases
urinary potassium excretion [2]: large urinary loss of sodium and potassium
urinary sodium excretion [2]: large urinary loss of sodium and potassium
